Results as given in KR20210143097A.
These are yes or no findings as the source states them, for the method shown. Some results given as binding are weak or reduced against the parent protein; the word gives no strength.

The chains behind the UniProt entries cited, without tags or fusion partners. Residues count along the entry.
UniProt P20273, residues 20-687: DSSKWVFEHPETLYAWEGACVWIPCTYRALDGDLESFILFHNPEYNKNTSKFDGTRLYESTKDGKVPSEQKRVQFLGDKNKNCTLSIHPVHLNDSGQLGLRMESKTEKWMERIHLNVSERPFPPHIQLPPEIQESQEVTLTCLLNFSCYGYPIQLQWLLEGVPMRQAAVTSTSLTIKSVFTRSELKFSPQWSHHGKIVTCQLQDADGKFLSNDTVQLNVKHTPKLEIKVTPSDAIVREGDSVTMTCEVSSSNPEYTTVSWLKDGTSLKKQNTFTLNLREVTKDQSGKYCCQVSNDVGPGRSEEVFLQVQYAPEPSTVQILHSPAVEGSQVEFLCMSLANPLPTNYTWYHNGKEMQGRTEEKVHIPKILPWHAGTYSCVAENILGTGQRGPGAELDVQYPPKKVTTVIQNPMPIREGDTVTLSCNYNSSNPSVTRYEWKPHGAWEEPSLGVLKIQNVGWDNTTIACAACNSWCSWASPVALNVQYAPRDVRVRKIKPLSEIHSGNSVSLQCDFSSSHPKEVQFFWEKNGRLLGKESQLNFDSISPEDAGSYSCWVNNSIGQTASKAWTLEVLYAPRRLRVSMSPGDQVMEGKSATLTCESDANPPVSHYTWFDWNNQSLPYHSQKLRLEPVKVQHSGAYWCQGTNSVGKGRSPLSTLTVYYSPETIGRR

Molecular target: CD22 (antigen of the hybridoma screening ELISA) (UniProt P20273)
Experiment: hybridoma screening ELISA after limiting dilution

binding	Binder
binds	7B5 항체 (antibody, V domains shown) VH: EVQLEESGPGLVAPSQSLSITCTVSGFSLTRYDISWIRQPPGKGLEWLGVMWTGGGTNYNSAFMSRLSISRDNSKSQVFLKMNSLQTDDTAIYYCVRSYYGSAMDYWGQGTSVTVSS VL: DIVMTQSSSYLSVSLGGRVTITCKASDHINNWLAWYQQKPGNAPRLLISGATSLETGVPSRFSGSGSGKDYTLSITSLQTEDVATYYCQQHWSTPFTFGSGTKLEIK
binds	3F11 항체 (antibody, V domains shown) VH: EVKLVESGGGLVQPGGSMKLSCVASGFTFSNYWMNWVRQSPEKGLEWVAEIRLKSNNYATHYAESVKGRFTISRDDSKSSVYLQMNNLRAEDTGIYYCTSIYYYGRDYAMDYWGQGTSVTVSS VL: DIVMTQSPAIMSASLGERVTMTCTASSSVSSSYLHWYQQKPGSSPKLWIYSTSNLASGVPARFSGSGSGTSYSLTISSMEAEDAATYYCHQYHRSPYTFGGGTKLEIK
